Laboratory results: PubChem BioAssay AID1259405 (NCATS, 2018)
In all, the deposit lists about 50,000 reagents; below is a random part of them. In the full data, about 4,000 (8%) were called active. 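Mouse siRNA library applied to hamster cells; one well for each siRNA.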 Entries without a mark were called inactive.

Assay: 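Mouse-designed siRNAs used to find CHO productivity engineering targets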 (primary screen)
Cell system: Chinese hamster CHO-K1 ovary cells with stable secreted eGFP expression
Knock-down reagent: single siRNA against mouse genes, 0.8 pmol siRNA per well (2 µl of 400 nM stock)
Timing: 3 days
Detection: 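Per-well intracellular GFP measured by laser scanning cytometry, plus viability from ATP luminescence, each relative to plate median of non-targeting control wells, in %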
Scale: GFP, % of control: higher = more GFP per well, higher productivity; viability (ATP), % of control: higher = more viable cells (more ATP)
Rule for the call: 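Called active when intracellular GFP, relative to negative control, is at or above 120%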

For Il1r1 [SID363568644], what was measured?
GFP, % of control: 104; viability (ATP), % of control: 95.2

With Il1r1 [SID363576036], how do the results read?
GFP, % of control: 27.7; viability (ATP), % of control: 42.7

What did the screen give for Il1r1 [SID363578852]?
GFP, % of control: 55.7; viability (ATP), % of control: 43.3

What is on record for Adcy7 [SID363573078]?
GFP, % of control: 39.6; viability (ATP), % of control: 33.6

For Adcy7 [SID363577654], how do the results read?
GFP, % of control: 21.7; viability (ATP), % of control: 35.7

How did the screen score Adcy7 [SID363581174]?
GFP, % of control: 86.3; viability (ATP), % of control: 90.9

With Atn1 [SID363539598], how do the results read?
GFP, % of control: 95.3; viability (ATP), % of control: 87.4

For Atn1 [SID363560899], what was measured?
GFP, % of control: 99.8; viability (ATP), % of control: 54.1

For Atn1 [SID363564989], how do the results read?
GFP, % of control: 94.1; viability (ATP), % of control: 73.8

Which result is listed for Slc30a4 [SID363574902]?
GFP, % of control: 55.3; viability (ATP), % of control: 63.1

How did the screen score Slc30a4 [SID363575958]?
GFP, % of control: 60.6; viability (ATP), % of control: 62.3

With Slc30a4 [SID363580534], what does the deposit list?
GFP, % of control: 20.8; viability (ATP), % of control: 94.2

With Cdh1 [SID363572937], what does the deposit list?
GFP, % of control: 69.8; viability (ATP), % of control: 71.2

What is on record for Cdh1 [SID363577513]?
GFP, % of control: 123 (active); viability (ATP), % of control: 83

Which result is listed for Cdh1 [SID363581033]?
GFP, % of control: 71.3; viability (ATP), % of control: 47.7

With Ttc29 [SID363543349], what was measured?
GFP, % of control: 104; viability (ATP), % of control: 90

With Ttc29 [SID363552842], what does the deposit list?
GFP, % of control: 47.3; viability (ATP), % of control: 40

What did the screen give for Ttc29 [SID363558690]?
GFP, % of control: 95; viability (ATP), % of control: 84.2

For Or10k2 [SID363544594], how do the results read?
GFP, % of control: 92.5; viability (ATP), % of control: 58.7

Which result is listed for Or10k2 [SID363550922]?
GFP, % of control: 71.2; viability (ATP), % of control: 80.5

What did the screen give for Or10k2 [SID363557471]?
GFP, % of control: 66.3; viability (ATP), % of control: 60.6

With Atp5f1c [SID363545396], what was measured?
GFP, % of control: 107; viability (ATP), % of control: 67.2

What is on record for Atp5f1c [SID363548909]?
GFP, % of control: 65.8; viability (ATP), % of control: 77.8

Which result is listed for Atp5f1c [SID363562715]?
GFP, % of control: 47.6; viability (ATP), % of control: 61.1

How did the screen score Smyd1 [SID363584503]?
GFP, % of control: 83.5; viability (ATP), % of control: 78.3

Which result is listed for Smyd1 [SID363589533]?
GFP, % of control: 218 (active); viability (ATP), % of control: 124

What did the screen give for Mettl22 [SID363547003]?
GFP, % of control: 113; viability (ATP), % of control: 153

With Mettl22 [SID363549815], what was measured?
GFP, % of control: 56.2; viability (ATP), % of control: 87.5

What is on record for Mettl22 [SID363587869]?
GFP, % of control: 96.4; viability (ATP), % of control: 139

3 of these entries, reformatted.
Ttc29 [SID363543349]
- GFP, % of control: 104
- viability (ATP), % of control: 90

Ttc29 [SID363552842]
- GFP, % of control: 47.3
- viability (ATP), % of control: 40

Ttc29 [SID363558690]
- GFP, % of control: 95
- viability (ATP), % of control: 84.2
